{"source": "PubChem BioAssay AID1347423", "about": "(Functional Genomics Laboratory (NCATS/FGL), 2020)", "note": "The campaign covered roughly 52,000 sequences. About 210 (0.4%) were called active.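 How the source made its calls: active means gene whose silencing raises cell survival under the drug, median off-target-corrected z-score across its silencing RNAs 2 or more; inactive means the rest.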 The list shows a part of the results."}
{"test": "Resistance to Poly (ADP-Ribose) Polymerase inhibitor: Gene Identification via Genome-wide siRNA Screen", "settings": "mouse BRCA2 R2336H ES cells, olaparib, CellTiter-Glo viability; stronger effect = higher value", "procedure,_shortened": "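Mouse BRCA2 R2336H ES cells were reverse-transfected with siRNA (20 nM final), treated at 48 h with 500 nM olaparib, and read by CellTiter-Glo after 72 h. Scores: MAD-based z per siRNA, median per gene, seed off-target correction.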"}
{"sequence": "GGGAAUGGUUCGAGGAAAATT against Trex1", "z-score": "inactive: 0.218"}
{"sequence": "GGAGAAGAAACAAAAACCUTT against Ktn1", "z-score": "inactive: 0.575"}
{"sequence": "GGGCUACACAAGUCCCUAUTT against Hoxd13", "z-score": "inactive: 0.836"}
{"sequence": "GGUUGAAUCAGGCAUCAUUTT against Sypl", "z-score": "inactive: 1.11"}
{"sequence": "CCUUCGUGUUCACUUUAAGTT against Rpl17", "z-score": "inactive: -3.04"}
{"sequence": "GGGAAUGCAAGACUUCAAUTT against Cpn1", "z-score": "inactive: 0.223"}
{"sequence": "CCAUCAAGCGAUUUGUGGUTT against Rnf103", "z-score": "inactive: 0.653"}
{"sequence": "CCAAGUCAAGUAACCCUUATT against Fgf4", "z-score": "inactive: -0.261"}
{"sequence": "GGACACUAUACAAAUUUCGTT against Fank1", "z-score": "inactive: 0.447"}
{"sequence": "GGAAAACAGCUUUGAUUGGTT against E130009J12Rik", "z-score": "inactive: 1.42"}
{"sequence": "GGGUCGUUGGCAUCAUCAATT against Rps6kl1", "z-score": "inactive: -1.67"}
{"sequence": "GGUAAAAAGUUUUGGGAAATT against Pum1", "z-score": "inactive: -1.59"}
{"sequence": "GGACGAGAAGAUCAACAUCTT against Rnf30", "z-score": "inactive: -0.455"}
{"sequence": "GGCAGAGACACAAGUCACUTT against Adam3", "z-score": "inactive: 1.25"}
{"sequence": "GCUGUACGAGCCCUGAUGATT against Cldn18", "z-score": "inactive: -0.96"}
{"sequence": "GGUUUUCACUGUGAAUUUGTT against Plscr1", "z-score": "inactive: 0.749"}
{"sequence": "GGACUUAACUGGACAAAAUTT against Card12", "z-score": "inactive: -0.0214"}
{"sequence": "CGAUGUAUUGUUAUUGCCATT against Lrp10", "z-score": "inactive: 0.189"}
{"sequence": "CCCAACAAAUACCACUACATT against Usp20", "z-score": "inactive: 1.63"}
{"sequence": "GGACUCAAAAAAGCAACGUTT against Tpbpb", "z-score": "inactive: -1.31"}
{"sequence": "CGACCAAUGGGCGUAAUCATT against Obox3", "z-score": "inactive: -1.55"}
{"sequence": "GGCUGCUUGGUGUCAUUUUTT against Mrps34", "z-score": "inactive: -0.825"}
{"sequence": "GGAGAAAAGAUAUGCUAUGTT against Dip3b", "z-score": "inactive: 1.53"}
{"sequence": "GCCUUUAAGAUACUAUCCATT against 4930506D23Rik", "z-score": "inactive: -0.154"}
{"sequence": "CGUAUUGUUCUCAAGCUAUTT against 5830458K16Rik", "z-score": "inactive: 0.281"}
{"sequence": "GGAAGAAACUGGCUACAAATT against Nudt5", "z-score": "inactive: 0.128"}
{"sequence": "CGUCCAUAAGCAGGUGUGUTT against Cops6", "z-score": "inactive: -2.43"}
{"sequence": "GGAAAGUAUGUCCAUUCUATT against Tnfrsf1a", "z-score": "inactive: -1.24"}
{"sequence": "GGUGAAGAAGAGUCUCAAATT against 3010026O09Rik", "z-score": "inactive: -1.57"}
{"sequence": "CGGUAAUGGGUAUCCUUUGTT against Olfr620", "z-score": "inactive: -1.4"}
{"sequence": "CCAGCAUGCAUGAACGAGUTT against 2410127L17Rik", "z-score": "inactive: -0.0173"}
{"sequence": "GCACAUCUUGGACCGUUUCTT against Lhx3", "z-score": "inactive: -1.79"}
{"sequence": "GGUGAAGUUGAAUGGAAGUTT against Zf", "z-score": "inactive: -1.59"}
{"sequence": "GGAUUUGAGGUUUUAGGAATT against Qtrtd1", "z-score": "inactive: 2.67"}
{"sequence": "CCAUAUAUCUGAUCACACUTT against Olfr832", "z-score": "inactive: 0.801"}
{"sequence": "CGAUUGAUGAAUCUGGUUCTT against Racgap1", "z-score": "inactive: 0.0197"}
{"sequence": "GCCUAGAAAGUUCUAUGUUTT against Fcho1", "z-score": "inactive: -0.429"}
{"sequence": "GGUUUUGGUAUAGAUACUUTT against Phxr4", "z-score": "inactive: 0.155"}
{"sequence": "CCCAUCCCUGUAAAAAUUCTT against 0610025L06Rik", "z-score": "inactive: 0.108"}
{"sequence": "CGUUUGUUGAAAGAAGAAGTT against D10Ertd214e", "z-score": "inactive: -0.964"}
{"sequence": "CGAAAAUCUUCUGGCUCACTT against Llglh2", "z-score": "inactive: 0.0181"}
{"sequence": "GGACAAUGUUUUGAUGAGUTT against D6Wsu176e", "z-score": "inactive: 0.308"}
{"sequence": "CGUGGAUAAAAUUAAGUAGTT against Pdlim2", "z-score": "inactive: -0.41"}
{"sequence": "GGAGGAAUACAAAUUCAAGTT against AF119384", "z-score": "inactive: 0.649"}
{"sequence": "GGAACCAUGGCAGUGCAUCTT against Dlk1", "z-score": "inactive: 0.0123"}
{"sequence": "CCCAACAUUAUCUUGGACCTT against Mrgpra8", "z-score": "inactive: -0.136"}
{"sequence": "GCUUCUUCAAGAGUAUAAUTT against Gad2", "z-score": "inactive: 0.412"}
{"sequence": "GGAUUCCUUACCAAAGAAGTT against 1700008F21Rik", "z-score": "inactive: 1.21"}
{"sequence": "CCAAGACAUCACAUUCAUATT against 4933403H06Rik", "z-score": "inactive: -0.253"}
{"sequence": "GCAAACCAGGGAAAAAGUGTT against 4631426G04Rik", "z-score": "inactive: -1.47"}
{"sequence": "CGUAGAUGUCCUAGAAUUGTT against Rundc1", "z-score": "inactive: 0.791"}
{"sequence": "GGGUUCUCAAGGUUGCAUUTT against Frs3", "z-score": "inactive: -0.404"}
